Source: PMC5976665, “Identification of a peptide for folate receptor alpha by phage display and its tumor targeting activity in ovary cancer xenograft” (Scientific Reports, 2018)
These are yes or no findings as the source states them, for the method shown. Some binding calls cover weakened binding; strength is not graded here.

Amino acid sequences for entries named in this document (tags omitted). Residues count along the entry.
UniProt P15328, residues 25-234: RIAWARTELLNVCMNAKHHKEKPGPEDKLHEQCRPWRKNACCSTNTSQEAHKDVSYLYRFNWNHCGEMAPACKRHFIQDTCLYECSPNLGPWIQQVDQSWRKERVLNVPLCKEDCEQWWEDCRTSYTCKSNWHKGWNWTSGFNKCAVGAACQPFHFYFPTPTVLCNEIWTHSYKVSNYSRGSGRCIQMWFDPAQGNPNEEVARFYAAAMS

B1: Phage clone G8 (peptide)
peptide: YTNPYYSSHTRN
notes: dodecapeptide selected by phage display; printed in three-letter code; source: M13 phage clone from the Ph.D.-12 library, amplified in E. coli ER2738; purified phage for flow cytometry
B2: Phage clone G12 (peptide)
peptide: MNPYPRTPWPHV
notes: as for B1
B3: Phage clone C7 (peptide)
peptide: MHTAPGWGYRLS
notes: dodecapeptide selected by phage display; printed in three-letter code; the synthetic FITC peptide is m18; also called C7 phage clone; source: M13 phage clone from the Ph.D.-12 library, amplified in E. coli ER2738; purified phage for flow cytometry
B4: Phage clone B8/H1/G4 (peptide)
peptide: GALLPSMNKGHW
notes: as for B1

Legend:
[1] = biological target: Recombinant human folate receptor alpha (FRα) (human) (UniProt P15328); test: ELISA; phage ELISA: recombinant FRα coated on 96-well plates (100 µL, 10 µg/mL, 0.05 M sodium bicarbonate pH 9.6), blocked with 3% BSA; 10^10 amplified phages per well, 2 h at 37 °C; detected with HRP-conjugated anti-M13 antibody, absorbance at 450 nm; compared with wild-type M13; only the target purified
[2] = biological target: Native human folate receptor alpha (FRα) on SKOV3 cells (human (endogenous in SKOV3)) (UniProt P15328); test: ELISA; cell-based ELISA: SKOV3 cells (FRα positive) and HepG2 cells (FRα negative control) in 96-well plates, fixed with 4% paraformaldehyde, blocked with 3% BSA; 10^10 individual phages per well, 2 h at 37 °C; detected with HRP-conjugated anti-M13 IgG

| Binder | binding [1] | binding [2] |
| --- | --- | --- |
| LGISATNAYARH [Phage clone A3] | binds | – |
| FFPLTFPWTYYD [Phage clone E9] | binds | – |
| SGVYKVAYDWQH [Phage clone G1/G10] | binds | – |
| VHWDFRQWWQPS [Phage clone G9, D5] | binds | – |
| B1 | binds | binds |
| B2 | binds | binds |
| RGMDTLWHHAYH [Phage clone H11] | binds | – |
| B3 | binds | binds |
| B4 | binds | binds |
| FSQATGRSPTTL [Phage clone A4] | binds | – |
| ASVLDYKGFFQR [Phage clone A7] | binds | – |
| TAAQWFPSLSNN [Phage clone A12] | binds | – |
| NWQPTAGLKPLH [Phage clone B1] | binds | – |
| WSAATVPRGFHA [Phage clone B7] | binds | – |
| SNSDAYALQFLR [Phage clone C1] | binds | – |
